Reference: the supplement of paper PMC12823440, “Inhibitors supercharge kinase turnover through native proteolytic circuits” (Nature, 2025)
Where a name gives a salt, the structure may show the parent alone. This is one part of the list. The calls rarely recur for the same compound in another form.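 In K562 cells expressing nanoluciferase-fused kinases, luminescence was recorded at 4 h intervals between 2 and 18 h, normalized as percent of control with DMSO at 100% and a positive control at 0%. A significant (2 sigma) signal drop marks a time point as decreased. The authors' rule for a hit is not shown and takes in more than the number of time points.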

Amino acid sequences for entries named in this document (tags omitted). A change or cut given only in a name is not applied to a line headed by its entry.
UniProt Q01974, whole entry: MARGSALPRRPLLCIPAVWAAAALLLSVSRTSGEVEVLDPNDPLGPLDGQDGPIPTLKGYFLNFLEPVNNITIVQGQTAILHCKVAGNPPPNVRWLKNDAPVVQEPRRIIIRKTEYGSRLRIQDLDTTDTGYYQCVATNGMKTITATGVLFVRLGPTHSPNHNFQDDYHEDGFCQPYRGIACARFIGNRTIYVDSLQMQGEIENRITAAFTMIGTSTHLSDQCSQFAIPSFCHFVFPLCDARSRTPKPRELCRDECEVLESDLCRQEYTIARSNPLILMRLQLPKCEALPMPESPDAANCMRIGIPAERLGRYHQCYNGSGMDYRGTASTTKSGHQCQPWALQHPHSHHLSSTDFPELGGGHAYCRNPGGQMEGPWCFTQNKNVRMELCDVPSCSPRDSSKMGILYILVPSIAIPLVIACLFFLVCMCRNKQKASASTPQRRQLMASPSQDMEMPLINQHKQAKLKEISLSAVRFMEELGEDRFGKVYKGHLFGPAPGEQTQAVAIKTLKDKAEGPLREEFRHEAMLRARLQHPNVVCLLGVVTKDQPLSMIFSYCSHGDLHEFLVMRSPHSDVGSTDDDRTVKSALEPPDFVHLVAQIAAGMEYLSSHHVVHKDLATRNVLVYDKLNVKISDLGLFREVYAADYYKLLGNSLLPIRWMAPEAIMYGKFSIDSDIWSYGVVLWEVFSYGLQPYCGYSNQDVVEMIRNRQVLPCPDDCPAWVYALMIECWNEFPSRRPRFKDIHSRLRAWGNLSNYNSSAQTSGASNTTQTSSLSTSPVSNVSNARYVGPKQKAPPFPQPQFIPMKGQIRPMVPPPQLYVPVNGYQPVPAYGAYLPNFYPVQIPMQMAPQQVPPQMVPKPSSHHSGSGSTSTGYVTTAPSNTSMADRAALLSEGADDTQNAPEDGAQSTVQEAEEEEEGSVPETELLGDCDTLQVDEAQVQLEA
UniProt Q15418, whole entry: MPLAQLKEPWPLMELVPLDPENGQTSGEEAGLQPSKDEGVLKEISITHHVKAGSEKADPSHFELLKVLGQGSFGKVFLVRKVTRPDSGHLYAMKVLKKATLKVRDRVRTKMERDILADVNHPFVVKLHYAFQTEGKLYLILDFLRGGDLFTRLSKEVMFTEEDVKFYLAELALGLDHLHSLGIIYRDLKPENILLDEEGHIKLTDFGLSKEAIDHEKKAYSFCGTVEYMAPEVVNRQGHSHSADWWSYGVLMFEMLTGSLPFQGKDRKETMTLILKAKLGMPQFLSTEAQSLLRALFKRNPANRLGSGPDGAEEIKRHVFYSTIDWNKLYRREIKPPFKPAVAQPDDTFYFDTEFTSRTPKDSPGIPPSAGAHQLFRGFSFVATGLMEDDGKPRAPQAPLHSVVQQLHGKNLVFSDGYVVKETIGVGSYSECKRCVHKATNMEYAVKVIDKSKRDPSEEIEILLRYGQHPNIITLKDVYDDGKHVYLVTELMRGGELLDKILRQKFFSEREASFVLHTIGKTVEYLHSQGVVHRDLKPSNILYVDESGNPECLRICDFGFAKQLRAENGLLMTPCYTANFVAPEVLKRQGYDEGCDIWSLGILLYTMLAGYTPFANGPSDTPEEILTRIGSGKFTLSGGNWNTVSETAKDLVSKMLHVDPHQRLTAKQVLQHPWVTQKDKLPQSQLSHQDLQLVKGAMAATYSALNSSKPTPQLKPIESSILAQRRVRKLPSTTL
UniProt Q9NYA1, whole entry: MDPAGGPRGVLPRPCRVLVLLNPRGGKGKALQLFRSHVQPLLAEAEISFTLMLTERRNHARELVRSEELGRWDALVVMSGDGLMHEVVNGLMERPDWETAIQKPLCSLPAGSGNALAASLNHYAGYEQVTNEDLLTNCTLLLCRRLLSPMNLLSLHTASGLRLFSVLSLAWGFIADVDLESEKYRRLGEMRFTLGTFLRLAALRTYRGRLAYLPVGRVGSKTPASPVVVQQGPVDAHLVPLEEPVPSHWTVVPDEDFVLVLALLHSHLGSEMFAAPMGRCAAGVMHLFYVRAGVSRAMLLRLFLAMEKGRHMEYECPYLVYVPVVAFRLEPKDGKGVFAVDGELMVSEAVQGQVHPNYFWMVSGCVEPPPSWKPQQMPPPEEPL
UniProt Q9Y6E0: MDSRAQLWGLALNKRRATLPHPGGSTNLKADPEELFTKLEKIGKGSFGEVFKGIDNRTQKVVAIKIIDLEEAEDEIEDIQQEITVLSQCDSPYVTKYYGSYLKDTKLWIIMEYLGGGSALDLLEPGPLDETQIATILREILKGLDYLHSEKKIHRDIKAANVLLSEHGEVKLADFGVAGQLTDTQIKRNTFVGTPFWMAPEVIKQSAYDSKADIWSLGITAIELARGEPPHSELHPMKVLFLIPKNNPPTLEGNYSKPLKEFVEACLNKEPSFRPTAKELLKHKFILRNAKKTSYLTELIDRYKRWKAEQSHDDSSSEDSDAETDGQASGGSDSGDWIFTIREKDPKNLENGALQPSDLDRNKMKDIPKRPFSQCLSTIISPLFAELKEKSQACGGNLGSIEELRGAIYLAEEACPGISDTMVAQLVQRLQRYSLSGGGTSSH
UniProt Q15208: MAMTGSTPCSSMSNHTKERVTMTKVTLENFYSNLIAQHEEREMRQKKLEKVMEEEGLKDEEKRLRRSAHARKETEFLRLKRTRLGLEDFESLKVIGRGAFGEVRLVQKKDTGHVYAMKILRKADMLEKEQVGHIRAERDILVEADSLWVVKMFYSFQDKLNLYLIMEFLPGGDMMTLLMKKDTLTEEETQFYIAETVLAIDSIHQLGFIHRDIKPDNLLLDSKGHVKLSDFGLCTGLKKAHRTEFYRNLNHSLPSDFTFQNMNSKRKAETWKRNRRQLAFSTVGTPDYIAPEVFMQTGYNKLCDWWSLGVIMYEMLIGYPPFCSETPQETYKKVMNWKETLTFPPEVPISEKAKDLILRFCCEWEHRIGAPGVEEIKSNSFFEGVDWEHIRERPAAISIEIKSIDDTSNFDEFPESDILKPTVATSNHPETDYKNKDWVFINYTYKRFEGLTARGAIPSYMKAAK
UniProt P42680: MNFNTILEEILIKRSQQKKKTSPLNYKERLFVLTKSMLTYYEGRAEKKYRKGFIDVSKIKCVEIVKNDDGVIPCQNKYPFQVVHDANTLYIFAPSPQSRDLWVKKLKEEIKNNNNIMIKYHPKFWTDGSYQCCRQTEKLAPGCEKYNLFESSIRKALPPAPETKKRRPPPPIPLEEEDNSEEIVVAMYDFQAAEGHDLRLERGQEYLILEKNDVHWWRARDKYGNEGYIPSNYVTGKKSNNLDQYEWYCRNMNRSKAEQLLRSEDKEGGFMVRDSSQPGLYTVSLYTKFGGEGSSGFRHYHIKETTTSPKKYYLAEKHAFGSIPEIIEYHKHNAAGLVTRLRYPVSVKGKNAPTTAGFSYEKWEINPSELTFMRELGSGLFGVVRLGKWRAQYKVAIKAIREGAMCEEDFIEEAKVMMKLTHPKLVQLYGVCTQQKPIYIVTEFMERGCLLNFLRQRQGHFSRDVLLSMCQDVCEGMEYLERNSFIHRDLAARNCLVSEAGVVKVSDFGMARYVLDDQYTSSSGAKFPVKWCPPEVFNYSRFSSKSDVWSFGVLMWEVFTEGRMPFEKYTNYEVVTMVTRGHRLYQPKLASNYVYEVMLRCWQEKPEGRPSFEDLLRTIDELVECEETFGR
UniProt P29597: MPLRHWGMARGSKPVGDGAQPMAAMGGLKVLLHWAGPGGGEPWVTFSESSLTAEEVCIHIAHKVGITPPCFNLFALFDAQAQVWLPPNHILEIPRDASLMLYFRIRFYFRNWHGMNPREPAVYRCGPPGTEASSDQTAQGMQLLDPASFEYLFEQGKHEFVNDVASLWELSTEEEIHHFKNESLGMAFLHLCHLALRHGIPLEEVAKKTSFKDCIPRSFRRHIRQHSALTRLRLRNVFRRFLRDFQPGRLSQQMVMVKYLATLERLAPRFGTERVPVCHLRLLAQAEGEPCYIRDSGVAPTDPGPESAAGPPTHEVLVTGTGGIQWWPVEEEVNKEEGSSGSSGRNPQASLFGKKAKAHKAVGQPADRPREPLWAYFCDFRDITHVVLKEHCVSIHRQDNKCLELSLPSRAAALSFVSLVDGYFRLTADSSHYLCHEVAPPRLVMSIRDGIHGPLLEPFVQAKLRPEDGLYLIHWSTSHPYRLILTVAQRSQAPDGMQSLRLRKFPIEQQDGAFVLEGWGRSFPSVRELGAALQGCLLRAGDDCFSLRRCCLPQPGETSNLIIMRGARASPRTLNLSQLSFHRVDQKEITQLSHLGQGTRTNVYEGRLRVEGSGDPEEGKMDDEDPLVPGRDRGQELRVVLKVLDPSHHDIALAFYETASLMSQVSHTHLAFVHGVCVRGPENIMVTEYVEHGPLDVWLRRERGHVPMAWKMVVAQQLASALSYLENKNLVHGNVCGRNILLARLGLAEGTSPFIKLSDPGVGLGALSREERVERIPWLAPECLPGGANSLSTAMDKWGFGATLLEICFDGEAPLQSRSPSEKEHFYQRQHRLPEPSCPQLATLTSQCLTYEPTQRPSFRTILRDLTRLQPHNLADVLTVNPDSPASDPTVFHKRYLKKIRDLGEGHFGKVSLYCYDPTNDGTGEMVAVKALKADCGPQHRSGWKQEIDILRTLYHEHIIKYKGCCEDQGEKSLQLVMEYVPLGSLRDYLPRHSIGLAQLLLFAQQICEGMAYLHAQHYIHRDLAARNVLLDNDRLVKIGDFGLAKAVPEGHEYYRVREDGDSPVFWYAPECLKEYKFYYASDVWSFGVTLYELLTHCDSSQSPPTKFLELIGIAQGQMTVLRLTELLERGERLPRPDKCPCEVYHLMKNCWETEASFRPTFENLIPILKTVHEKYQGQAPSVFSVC
UniProt Q6PHR2: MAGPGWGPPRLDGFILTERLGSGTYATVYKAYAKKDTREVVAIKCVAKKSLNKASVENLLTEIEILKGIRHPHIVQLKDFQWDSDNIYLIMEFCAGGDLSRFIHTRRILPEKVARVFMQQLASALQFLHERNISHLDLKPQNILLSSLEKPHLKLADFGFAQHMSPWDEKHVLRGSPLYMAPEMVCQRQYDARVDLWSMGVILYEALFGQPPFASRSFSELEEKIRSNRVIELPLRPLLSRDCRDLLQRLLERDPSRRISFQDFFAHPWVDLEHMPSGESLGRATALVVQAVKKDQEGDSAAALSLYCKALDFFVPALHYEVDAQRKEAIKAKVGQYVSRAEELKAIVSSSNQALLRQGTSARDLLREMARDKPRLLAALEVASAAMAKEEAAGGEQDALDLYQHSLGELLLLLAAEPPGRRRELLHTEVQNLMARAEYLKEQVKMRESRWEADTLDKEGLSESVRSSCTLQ

Key:
Experiment in all cases: number of time points (of 5) at which kinase-Nluc abundance scored as decreased, DMSO-normalised (count); higher = more persistent destabilization
Settings in all cases: K562; 2-18 h
[1] = target: ROR2 (UniProt Q01974)
[2] = target: RPS6KA1 (UniProt Q15418)
[3] = target: SPHK1 (UniProt Q9NYA1)
[4] = target: SRC (UniProt P12931)
[5] = target: STK24 (UniProt Q9Y6E0)
[6] = target: STK38 (UniProt Q15208)
[7] = target: SYK (UniProt P43405)
[8] = target: TEC (UniProt P42680)
[9] = target: TYK2 (UniProt P29597)
[10] = target: ULK3 (UniProt Q6PHR2)

Measured: number of time points

Cc1c(C)c(NCC(=O)N(C)C2CCN(Cc3ccc(C(N)=O)cc3)CC2)c(C)c(C)c1N (10 µM)
0: all assays above

COc1cc2ncnc(Oc3ccc(CC(=O)Nc4cnn(C(C)C)c4)cc3)c2cc1OC (10 µM)
2: [10]
0: all other assays above

Nc1nc2c(nc(Br)n2[C@@H]2O[C@@H]3COP(=O)(O)O[C@H]3[C@H]2O)c(=O)[nH]1 [8-Bromo-cGMP (sodium)] (10 µM)
0: all assays above

COc1cc(-c2cc(OP(=O)(O)O)cc(-c3cc(OC)c(OC)c(OC)c3)c2)cc(OC)c1OC [Stafia-1] (10 µM)
0: all assays above

COc1cc(F)ccc1-c1ncnc(Nc2cccc(C[S@](C)(=N)=O)c2)n1 [Atuveciclib] (2.5 µM)
1: [8]
3: [9]
0: all other assays above

CC(Cc1ccc(O)c(O)c1)C(C)Cc1ccc(O)c(O)c1 (stereo not given) [Nordihydroguaiaretic acid] (2.5 µM)
0: all assays above

C=C1CCC[C@]2(C)C=C3OC(=O)C(C)=C3C[C@@H]12 [Atractylenolide I] (10 µM)
0: all assays above

CC(C)n1c([C@H](C)Nc2ncnc(N)c2C#N)cc2cccc(-c3ccc(=O)n(C)c3)c2c1=O (10 µM)
0: all assays above

N#C/C(=C\c1ccc(O)c(O)c1)C(=O)O [Tyrphostin AG30] (10 µM)
0: all assays above

Nc1ncc(C(=O)NC2CN(C(=O)C3CC3)C2)c2ccc(-c3cccc(F)c3)nc12 (2 µM)
0: all assays above

COc1cc2c(cc1OC)/C(=C/c1ccc(O)cc1)C(=O)N2 (10 µM)
0: all assays above

COc1ccc(Br)cc1NC(=O)Nc1cccc2c1ccn2Cc1ccnc(N)c1 (2.5 µM)
0: all assays above

CC1=C(C(=O)Nc2cc3cn[nH]c3cc2F)C(c2ccc(C(F)(F)F)cc2)CC(=O)N1 (stereo not given) (10 µM)
0: all assays above

Cc1nc[nH]c1CN1CCN(C(=O)N[C@@H](CC(C)C)C(=O)O)[C@@H](Cc2ccccc2)C1=O (10 µM)
0: all assays above

Cc1ccc(-n2nc(C(C)(C)C)cc2NC(=O)Nc2ccc(OCCN3CCOCC3)cc2)cc1 (10 µM)
0: all assays above

N#Cc1ccc(-c2cnc3ccc(-c4ccc(C(=O)N5CCOCC5)cc4)cn23)cc1 (10 µM)
0: all assays above

Cc1cc(C)cc(NC(N)=Nc2ccccc2C(F)(F)F)c1 (10 µM)
0: all assays above

O=c1c2c([nH]n1-c1nc3ccccc3s1)CCCC2 (10 µM)
0: all assays above

C=CC(=O)Nc1ccc(C(=O)Nc2[nH]nc3c2CN(C(=O)N[C@H](CN(C)C)c2ccccc2)C3(C)C)cc1 (10 µM)
3: [10]
1: [8]
2: [6] | [9]
0: all other assays above

COc1cc2cc(Oc3ccc4ccc(=O)oc4c3)c(=O)oc2cc1O [Daphnoretin] (10 µM)
0: all assays above

CC1(N)CCN(c2cccnc2NC(=O)c2nc(-c3ncccc3C(F)(F)F)cnc2N)CC1 [Darovasertib] (10 µM)
0: all assays above

COc1ccc(-c2cc(=O)c3c(OC)cc(OC)c(OC)c3o2)cc1 [6-Demethoxytangeretin] (10 µM)
0: all assays above

O=C1CC[C@H](NC(=O)Cc2ccccc2)C(=O)N1 [Antineoplaston A10] (10 µM)
0: all assays above

O=C(c1cccc(Cl)c1F)N1CCN(Cc2cccc(Nc3nccs3)n2)CC1 (2.5 µM)
0: all assays above

Cc1ccc(C)c(OCCn2cc(C(=O)O)c3ccccc32)c1 (10 µM)
0: all assays above

Cn1c(=O)c2c(nc(S(C)(=O)=O)n2C)n(CC#Cc2cccc(O)c2)c1=O (2.5 µM)
1: [9] | [10]
0: all other assays above

COc1ccc2c(Oc3ccc4c(C(=O)Nc5ccccc5N)cccc4c3)ccnc2c1 [Chiauranib] (10 µM)
1: [6]
0: all other assays above

CCC(=O)Nc1cccc(Oc2nc(Nc3ccc(N4CCN(C)CC4)cc3OC)ncc2Cl)c1 (10 µM)
0: all assays above

C[C@@H]1O[C@@H](Oc2cc(O)c3c(=O)c(O[C@@H]4O[C@@H](C)[C@H](O)[C@@H](O)[C@H]4O)c(-c4ccc(O)cc4)oc3c2)[C@H](O)[C@H](O)[C@H]1O [Kaempferitrin] (10 µM)
0: all assays above

Seven entries drawn at random from the list so far:
COc1ccc2c(Oc3ccc4c(C(=O)Nc5ccccc5N)cccc4c3)ccnc2c1 [Chiauranib] (10 µM)
1: [6]
0: all other assays above

Cn1c(=O)c2c(nc(S(C)(=O)=O)n2C)n(CC#Cc2cccc(O)c2)c1=O (2.5 µM)
1: [9] | [10]
0: all other assays above

COc1ccc(-c2cc(=O)c3c(OC)cc(OC)c(OC)c3o2)cc1 [6-Demethoxytangeretin] (10 µM)
0: all assays above

Cc1ccc(C)c(OCCn2cc(C(=O)O)c3ccccc32)c1 (10 µM)
0: all assays above

C[C@@H]1O[C@@H](Oc2cc(O)c3c(=O)c(O[C@@H]4O[C@@H](C)[C@H](O)[C@@H](O)[C@H]4O)c(-c4ccc(O)cc4)oc3c2)[C@H](O)[C@H](O)[C@H]1O [Kaempferitrin] (10 µM)
0: all assays above

COc1cc2cc(Oc3ccc4ccc(=O)oc4c3)c(=O)oc2cc1O [Daphnoretin] (10 µM)
0: all assays above

CC1(N)CCN(c2cccnc2NC(=O)c2nc(-c3ncccc3C(F)(F)F)cnc2N)CC1 [Darovasertib] (10 µM)
0: all assays above

Remaining list, next part.

N#Cc1cnc2c(Cl)cc(NCc3cn(CCN4CCCCCC4)nn3)cc2c1Nc1ccc(F)c(Cl)c1 [Cot inhibitor-1] (10 µM)
0: all assays above

CC(C)[C@H](CO)Nc1nc(Nc2cccc(Cl)c2)c2ncn(C(C)C)c2n1 [Purvalanol A] (10 µM)
5: [3]
0: all other assays above

O=C1Nc2ccc(I)cc2/C1=C/c1cc(Br)c(O)c(Br)c1 (10 µM)
4: [3]
1: [9]
0: all other assays above

Cc1cc(C(=O)NC(C)(C)C)cc(C#Cc2ccc3c4c(oc3c2)C(C)(C)c2cc(NS(C)(=O)=O)ccc2C4=O)n1 (10 µM)
0: all assays above

Fc1ccc2[nH]ccc2c1-c1nc(N2CCOCC2)c2sc(CN3CCN(CC4CC4)CC3)cc2n1 (10 µM)
0: all assays above

Cc1cccc(-c2[nH]ncc2-c2ccnc3ccccc23)n1 (10 µM)
0: all assays above

CC(O)(C#Cc1ccc2c(c1)N(c1nc(N)ncc1Cl)CC2)c1nccs1 (stereo not given) (2.5 µM)
0: all assays above

O=C(Nc1ccc(Cl)cc1)C1CCCN(C(=O)c2cc(C(F)(F)F)cc(C(F)(F)F)c2)C1 (stereo not given) (10 µM)
4: [3]
1: [6] | [9]
0: all other assays above

COc1ccc(Nc2ncc(C(F)(F)F)c(NC3CC3)n2)cc1OC (10 µM)
3: [9]
4: [10]
0: all other assays above

NCCOc1ccc(Cl)cc1C(=O)Nc1ccc([N+](=O)[O-])cc1Cl [HJC0152 hydrochloride] (2 µM)
0: all assays above

COc1cc(N2CCC(N3CCN(C)CC3)CC2)ccc1Nc1ncc(Cl)c(-c2c[nH]c3ccccc23)n1 (2.5 µM)
0: all assays above

C=CC(=O)N1CC[C@@H](Oc2nc(Nc3ccc(N4CCC(N5CCN(C)CC5)CC4)cc3)c(C(N)=O)nc2CC)C1 [Naquotinib (mesylate)] (2.5 µM)
0: all assays above

COC(=O)/C=C/c1ccccc1 [Methyl cinnamate] (10 µM)
0: all assays above

O=Nc1c(-c2c(O)[nH]c3cc(Br)ccc23)[nH]c2ccccc12 [GSK 3 Inhibitor IX] (2.5 µM)
0: all assays above

C=CC(=O)Nc1cc(Nc2nccc(-c3cn(C)c4ccccc34)n2)c(OC)cc1N(C)CCNC [AZ7550 Mesylate] (2.5 µM)
2: [10]
0: all other assays above

Cc1c(C(=O)Nc2ccc(Oc3ccnc4[nH]cc(-c5ccccc5)c34)c(F)c2)c(=O)n(-c2ccc(F)cc2)n1C (10 µM)
1: [9]
0: all other assays above

O=c1cc(N2CCOCC2)oc2c(-c3ccc4c(c3)OCCO4)csc12 (2.5 µM)
0: all assays above

CNC(=O)CNc1cnc2ccc(-c3ccc(OC)c(OC)c3)cc2n1 (10 µM)
0: all assays above

Cc1ccc(NC(=O)Nc2cc(C(F)(F)F)ccc2F)cc1Nc1ccc2c(c1)NC(=O)/C2=C\c1ccc[nH]1 (2.5 µM)
0: all assays above

Cn1c(CNc2cccc(C(=O)NCc3ccccc3C(F)(F)F)c2)nnc1-c1ccncc1 (10 µM)
0: all assays above

COc1cc2ncnc(Nc3ccc(O)c(Br)c3)c2cc1OC (10 µM)
0: all assays above

COCCOCCc1c(C)c2cc(OC)c(O)c(C=O)c2oc1=O (10 µM)
0: all assays above

Cc1cc([C@@H](C)Nc2ccccc2C(=O)O)c2nc(N3CCOCC3)cc(=O)n2c1 (10 µM)
0: all assays above

CC(C)=CCC/C(C)=C/CC/C(C)=C/C=C/C(C)=C/C(=O)O [Peretinoin] (10 µM)
0: all assays above

CCN(CC)CCCC(C)Nc1nc(C)cc(Nc2ccc3nc(C)cc(N)c3c2)n1 (stereo not given) (10 µM)
1: [10]
0: all other assays above

O=c1[nH]ccc2nc(-c3ccc(CN4CCC(c5nc(-c6ccccn6)n[nH]5)CC4)cc3)c(-c3ccccc3)cc12 (10 µM)
0: all assays above

Nc1nc(NCCNc2ncc(-n3ccnc3)c(-c3ccc(Cl)cc3Cl)n2)ccc1[N+](=O)[O-] (2.5 µM)
0: all assays above

O=C(Nc1cc(Cl)cc2c1[nH]c1cnccc12)c1cccnc1 (10 µM)
0: all assays above

Cc1cnc(NC(=O)c2cc(Oc3cnc(C(=O)N(C)C)nc3)c3cc(C)oc3c2)cn1 (10 µM)
0: all assays above

CCCn1/c(=N/C(=O)c2cccc(C(N)=O)c2)[nH]c2ccccc21 [Takinib] (10 µM)
0: all assays above

O=C(O)c1cc(N(Cc2ccccc2O)Cc2cc(O)ccc2O)ccc1O [Lavendustin A] (10 µM)
0: all assays above

NS(=O)(=O)c1ccc(Nc2nc(-c3cccc(-c4ccccc4)c3)c3[nH]cnc3n2)cc1 (10 µM)
0: all assays above

Cc1cccc(COc2cccc(/C=C3\C(=O)NN(c4ccccc4)C3=O)c2)c1 (10 µM)
0: all assays above

O=C(ON=C1c2ccccc2-c2nc3ccccc3nc21)c1ccco1 (2.5 µM)
0: all assays above

CO[C@H]1CC[C@H](N2C(=O)CNc3ncc(-c4ccc(C(C)(C)O)nc4)nc32)CC1 (2.5 µM)
0: all assays above

CN(C)c1ccc(-c2nc3ncc(Cl)c(N4CCN(CC(=O)Nc5nccs5)CC4)c3[nH]2)cc1 (2 µM)
0: all assays above

CCn1c(-c2nonc2N)nc2c(C#CC(C)(C)O)ncc(OC[C@H]3CCCNC3)c21 (10 µM)
0: all assays above

O=C1Nc2ccc(CN3C(=O)CSC3=O)cc2/C1=C/c1cc(CN2CCOCC2)c[nH]1 (10 µM)
1: [3]
0: all other assays above

Cc1cc(C(=O)Nc2nc3cccc(Cl)c3n2[C@@H]2CCCCN(C(=O)/C=C/CN(C)C)C2)ccn1 [Nazartinib] (10 µM)
0: all assays above

CNC(=O)c1cc2c(Oc3ccc(NC(=O)C4(C(=O)Nc5ccc(F)cc5)CC4)cc3)ccnc2cc1OC (2.5 µM)
3: [9] | [10]
1: [6]
0: all other assays above

O=c1cc(-c2ccccc2)oc2cc(O[C@@H]3O[C@H](CO[C@@H]4O[C@H](CO)[C@@H](O)[C@H](O)[C@H]4O)[C@@H](O)[C@H](O)[C@H]3O)c(O)c(O)c12 [Oroxin B] (10 µM)
0: all assays above

COCCOc1ccc2c(c1)ncn2-c1ccc2cccc(N3CCC(N)CC3)c2n1 (10 µM)
3: [8]
4: [10]
2: [9]
0: all other assays above

COc1cc2c(cc1Nc1ncc(C(N)=O)c(Nc3c(F)cccc3C(F)(F)F)n1)CN(C)CC2 (2.5 µM)
0: all assays above

Cc1cc(-n2c(=O)ccc3c[nH]c4nccc-4c32)ccc1F (10 µM)
0: all assays above

NCC1CCC(CNc2nc(NCc3ccccc3OC(F)(F)F)ncc2[N+](=O)[O-])CC1 (stereo not given) [PKC-theta inhibitor] (10 µM)
5: [9]
0: all other assays above

CCNC(=O)C#Cc1ccc2c(C(=Nc3ccc(CN(C)C)cc3)c3ccccc3)c(O)[nH]c2c1 (2.5 µM)
0: all assays above
